Reference: PubChem BioAssay AID1259281 (Sanger Institute, 2017)

Purpose: 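Find knock-downs that kill colorectal cancer cells alone or strengthen targeted drugs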 (primary screen)
Cells: human COLO678 colorectal cancer cell line
Knock-down reagent: siRNA pool against human genes
Conditions: anchor drugs at fixed doses: BYL719 1 µM, cetuximab 5 µg/ml or trametinib 10 nM; DMSO vehicle for the siRNA-alone arm
Measured: 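Cell viability compared with non-targeting pool wells, averaged over replicates; knock-down-alone effect also as robust z-score; synergy scores set knock-down plus drug against expected joint effect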
Scale: robust z-score, siRNA alone: higher = more viable cells; strongly negative means essential
Call rule: 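Called essential (knock-down alone) if knock-down by itself drops cell number to a robust z-score under -3; all others no change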
Calls: active = essential (knock-down alone); inactive = no change
Shown is a random part of 794 reagents tested. Over the whole deposit, 22 (2.8%) got an active call. 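Calls rest on knock-down alone only; drug synergy scores play no part in them.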 Not all columns of the deposit are shown. Reagent sequences are not shown. The record does not give: the amount of reagent, the time to read-out.

target gene | PubChem SID | robust z-score, siRNA alone | call
RYK | SID152147158 | 0.473 | inactive
AXIN2 | SID135621652 | 0.137 | inactive
PEAK1 | SID152152075 | 0.473 | inactive
TRIO | SID56478974 | 0.336 | inactive
BMPR1A | SID135620910 | 0.473 | inactive
BRAF | SID152153735 | -0.262 | inactive
PIP5K1C | SID134310630 | -0.366 | inactive
PRKCH | SID56478829 | 0.224 | inactive
STK26 | SID152154531 | -0.223 | inactive
MAP4K2 | SID56478700 | -0.958 | inactive
HCK | SID135620622 | 0.473 | inactive
MKNK1 | SID135620901 | 0.473 | inactive
TBX3 | SID134316486 | 0.473 | inactive
AURKA | SID135620696 | -0.867 | inactive
PLK4 | SID152155543 | 0.473 | inactive
GRK1 | SID152156219 | -1.5 | inactive
CLK3 | SID56478875 | -0.515 | inactive
CDK7 | SID152150057 | 0.473 | inactive
KSR2 | SID152149204 | 0.473 | inactive
CSNK1G1 | SID152156369 | 0.473 | inactive
KSR1 | SID152156641 | -4.49 | active
PRKD2 | SID135620789 | 0.473 | inactive
UHMK1 | SID152150381 | -0.324 | inactive
TSSK6 | SID152147466 | 0.473 | inactive
EFNA3 | SID135623696 | 0.473 | inactive
PACSIN1 | SID56479194 | 0.473 | inactive
CDC42BPB | SID152149037 | 0.473 | inactive
MELK | SID56478756 | 0.473 | inactive
PDK2 | SID56478952 | 0.473 | inactive
KIT | SID152151885 | 0.473 | inactive
PLK3 | SID56478615 | 0.473 | inactive
ACVRL1 | SID152155046 | 0.473 | inactive
CDK20 | SID152152456 | 0.473 | inactive
TAB1 | SID135620883 | 0.473 | inactive
DYRK1B | SID56478878 | 0.228 | inactive
FCSK | SID152149608 | 0.473 | inactive
TSSK2 | SID56479050 | 0.473 | inactive
CDK9 | SID152156235 | 0.473 | inactive
PDK4 | SID152155412 | -1.46 | inactive
MYO3B | SID152152883 | 0.473 | inactive
DIS3 | SID134319450 | 0.473 | inactive
EPHA8 | SID135620615 | 0.473 | inactive
TBCK | SID56479023 | 0.0215 | inactive
DGKI | SID56479093 | 0.473 | inactive
CERK | SID152152071 | 0.473 | inactive
KDR | SID56478526 | 0.473 | inactive
STK25 | SID135620899 | -1.31 | inactive
MAP3K2 | SID135620706 | 0.473 | inactive
CAD | SID152152923 | 0.473 | inactive
CDK14 | SID56478888 | 0.473 | inactive
